PubChem BioAssay AID1259267, Sanger Institute – 2017

Assay: 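Kinase and colorectal-mutated gene knock-downs lethal to GP5D cells alone or with drugs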 (primary screen)
System: human GP5D colorectal cancer cells
Reagents: siRNA pool against human genes
Challenge: anchor drugs at low dose: BYL719 1 µM, cetuximab 5 µg/ml, trametinib 10 nM, or DMSO vehicle
Detection: 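Viability against non-targeting pool, replicate mean: robust z-score for knock-down alone, fraction with DMSO, synergy with BYL719 1 µM, cetuximab 5 µg/ml, trametinib 10 nM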
Reading the numbers: robust z-score, knock-down alone: higher = more viable cells
Active means: 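a robust z-score below -3 for the knock-down by itself makes a gene active, i.e. essential alone; synergy scores are ignored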
Meaning of the calls: active = essential alone; inactive = not essential
Shown is an unselected part of 794 deposited reagents. Of all reagents, 9 (1.1%) were called active. 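Viability capped at 1; calls reflect loss of viability from knock-down alone, not synergy with drugs.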 The numbers tell different reagents against one gene apart. Not all columns of the deposit are shown. No sequences are given here. The record does not give: the amount of reagent, the time to read-out.

FN3KRP: robust z-score, knock-down alone = -2.72; Outcome = inactive
MAST1: robust z-score, knock-down alone = 0.64; Outcome = inactive
ITPKA: robust z-score, knock-down alone = 0.817; Outcome = inactive
COQ8B: robust z-score, knock-down alone = 0.817; Outcome = inactive
PKDCC: robust z-score, knock-down alone = 0.817; Outcome = inactive
LYN: robust z-score, knock-down alone = 0.693; Outcome = inactive
RPS6KL1: robust z-score, knock-down alone = 0.455; Outcome = inactive
MYO3B: robust z-score, knock-down alone = 0.817; Outcome = inactive
CDKL2: robust z-score, knock-down alone = 0.817; Outcome = inactive
CDK5R2: robust z-score, knock-down alone = -1.22; Outcome = inactive
FGFR4: robust z-score, knock-down alone = 0.524; Outcome = inactive
RBKS: robust z-score, knock-down alone = 0.0238; Outcome = inactive
RPS6KB2: robust z-score, knock-down alone = -1.49; Outcome = inactive
PTK2: robust z-score, knock-down alone = 0.817; Outcome = inactive
PIK3R3: robust z-score, knock-down alone = 0.817; Outcome = inactive
BRSK2: robust z-score, knock-down alone = 0.817; Outcome = inactive
PDK3: robust z-score, knock-down alone = -0.711; Outcome = inactive
MAP3K10: robust z-score, knock-down alone = 0.817; Outcome = inactive
EFNA4: robust z-score, knock-down alone = 0.0233; Outcome = inactive
CDK4: robust z-score, knock-down alone = 0.0889; Outcome = inactive
PIM3: robust z-score, knock-down alone = 0.817; Outcome = inactive
MAP3K20: robust z-score, knock-down alone = -0.789; Outcome = inactive
MAP2K1: robust z-score, knock-down alone = -1.69; Outcome = inactive
PAK4: robust z-score, knock-down alone = 0.817; Outcome = inactive
CPNE3: robust z-score, knock-down alone = 0.817; Outcome = inactive
PTK7: robust z-score, knock-down alone = -0.934; Outcome = inactive
TRIO: robust z-score, knock-down alone = -1.03; Outcome = inactive
MAP3K21: robust z-score, knock-down alone = -0.627; Outcome = inactive
MAP4K5: robust z-score, knock-down alone = -3.54; Outcome = active
STK3: robust z-score, knock-down alone = 0.817; Outcome = inactive
DLG2: robust z-score, knock-down alone = 0.817; Outcome = inactive
ADPGK: robust z-score, knock-down alone = 0.653; Outcome = inactive
NME5: robust z-score, knock-down alone = 0.817; Outcome = inactive
ILK #1: robust z-score, knock-down alone = 0.817; Outcome = inactive
ILK #2: robust z-score, knock-down alone = 0.817; Outcome = inactive
CDK5R1: robust z-score, knock-down alone = -0.714; Outcome = inactive
